The target of the assay is T1, WOX5-mV(N) (Arabidopsis thaliana) (UniProt Q8H1D2).
T1 sequence: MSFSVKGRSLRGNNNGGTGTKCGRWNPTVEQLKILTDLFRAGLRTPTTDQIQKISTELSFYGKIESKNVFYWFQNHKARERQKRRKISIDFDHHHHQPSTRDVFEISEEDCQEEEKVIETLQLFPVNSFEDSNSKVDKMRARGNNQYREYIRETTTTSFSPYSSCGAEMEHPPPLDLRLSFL
The experiment in a line: split reporter; reconstitution of mVenus fluorescence from mV(N) and mV(C) fusions co-expressed in N. benthamiana epidermal leaf cells, used as donor for FRET-FLIM.

Results are given in words; binding and its absence hold for the method and conditions named. In cells and extracts the contact can be indirect. Some binding calls cover weakened binding; strength is not graded here.

B1: BRAVO-mCherry (natural protein, Arabidopsis thaliana, UniProt Q6R053 1-323, looked up)
chain: MNPNLLEKDLRGKETTNGSIRYKEANNFRSLPNSHTAACKTSLNNPSISRNHPHNKSASVLESEDEHGNERGENEKSLRMRGKSGINTKVCSRGHWRPTEDAKLKELVAQFGPQNWNLISNHLLGRSGKSCRLRWFNQLDPRINKRAFTEEEEFRLLAAHRAYGNKWALISRLFPGRTDNAVKNHWHVIMARRTRESQRQRQQPPPTLSRDAEMTVSSSCRYNQGKFINEEDDDDDVSAVSTCTTELSLTPPSSAYQPRFFNYDSTLASGKDGQCVQRAEVNGIYGKKMDHQNHHTISVSERKVEMKMRSGYYYFDFLGVGAS
notes: BRAVO, R2R3-MYB transcription factor of Arabidopsis thaliana; the CDS amplified from cDNA; FRET acceptor; source: N. benthamiana abaxial epidermal leaf cells, transiently expressed (β-estradiol inducible), in cells
Regarding B1, the binding entry is “binds”.
